These are yes or no findings as the source states them, for the method shown. For some assays here: Binding seen in cells or lysates may run through a third protein. Some results given as binding are weak or reduced against the parent protein; the word gives no strength. Values belong to the molecule of their own block, whether it stands above or below them.
Legend:
[1] = target: T1, PGAM2 (endogenous in KLN-205 cells) (mouse (endogenous in KLN-205)) (UniProt O70250); test: proximity ligation; DuoLink In Situ Orange kit in KLN-205 cells under standard (control) culture conditions; rabbit anti-PGAM2 with mouse anti-14-3-3ζ/δ or mouse anti-RPLP0; signal measured from the nuclei (DAPI)
T1 sequence: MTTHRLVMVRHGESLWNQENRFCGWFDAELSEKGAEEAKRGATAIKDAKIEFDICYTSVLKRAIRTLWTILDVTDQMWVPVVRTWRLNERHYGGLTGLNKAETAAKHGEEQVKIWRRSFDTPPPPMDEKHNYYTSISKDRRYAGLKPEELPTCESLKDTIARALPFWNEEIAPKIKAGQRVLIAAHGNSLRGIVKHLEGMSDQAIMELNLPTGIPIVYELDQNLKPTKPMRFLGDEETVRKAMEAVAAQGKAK

Protein sequences, listed by entry. Tags and fused reporters are not part of them. Lines headed by an entry give the natural chain unless they say otherwise; changes in a name come on top.
UniProt P63101: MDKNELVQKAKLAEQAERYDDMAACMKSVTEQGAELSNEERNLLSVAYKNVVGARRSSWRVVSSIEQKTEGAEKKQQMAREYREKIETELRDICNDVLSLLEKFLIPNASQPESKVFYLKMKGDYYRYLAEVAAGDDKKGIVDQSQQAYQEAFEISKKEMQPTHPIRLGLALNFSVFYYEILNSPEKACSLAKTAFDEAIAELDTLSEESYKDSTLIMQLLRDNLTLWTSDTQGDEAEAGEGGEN

[2] = target: rabbit muscle phosphoglycerate mutase PGAM2 (rabbit) (UniProt G1U7S4); test: crystal structure; rabbit muscle PGAM2, space group P41212, one chain in the asymmetric unit, dimer by the crystallographic twofold axis; 0.1 M HEPES-NaOH pH 7.0, 0.2 M NaCl, 20% PEG6000, 292 K; both purified

binding [1]: binds
Molecule: 14-3-3ζ/δ (from UniProt P63101 1-245)

binding [2]: binds
B1: rabbit muscle phosphoglycerate mutase PGAM2 (enzyme, UniProt G1U7S4 1-253)
chain: MATHRLVMVRHGESTWNQENRFCGWFDAELSEKGAEEAKRGAVAIKDAKMEFDICYTSVLKRAIRTLWTILDGTDQMWLPVVRTWRLNERHYGGLTGLNKAETAAKHGEEQVKIWRRSFDIPPPPMDEKHPYYTSISKERRYAGLKPGELPTCESLKDTIARALPFWNEEIAPQIKAGKRVLIAAHGNSLRGIVKHLEGMSDQAIMELNLPTGIPIVYELDQALKPTKPMRFLGDEETVRKAMEAVAAQGKAK

— publication PMC9656839
